The results in this text go back to PubChem BioAssay AID248 (DTP/NCI, 2004).

The list shows only some results of the screen, not a fair sample: it gathers tests that were run many times, whatever their T/C, doses with no T/C, and many T/C values between a quarter and a half above the control. Other doses and runs of a compound stand elsewhere. T/C gives the treated animals as a percentage of the vehicle group. Some doses have a count of surviving animals in place of a T/C: the source files T/C as zero there, which appears to mark a toxic dose or a test without result, not a measured value. Some doses without a T/C left all or most animals alive at the check, yet need not have been tolerated: survival well below the control is almost never listed, so the zero probably covers shortened survival too. Counts of survivors are from the toxicity check (mostly the fifth day) where no day follows; animals may have died later. Schedules are NCI's codes, read here as Q, the interval in days (D) or hours (H), X, the number of doses. For survival time, the PubChem record calls one and a half times the control and up active, and a quarter to a half above the control has no call in these data; cut-offs in other NCI protocols can differ.

This test deals with L1210 leukemia ip in BDF1 mice, survival T/C. Briefly: NCI In Vivo Anticancer Drug Screen. Data for tumor model L1210 Leukemia (intraperitoneal) in B6D2F1 (BDF1) mice. The conditions noted are these: T/C endpoint: mean survival time, higher T/C = longer survival.
Where [1] appears, read: dose: 100.0 mg/kg/injection, schedule: Q04DX003 (ip), vehicle: Klucel (hydroxypropylcellulose) (HPC).
[2] abbreviates: dose: 200.0 mg/kg/injection, schedule: Q04DX003 (ip), vehicle: Klucel (hydroxypropylcellulose) (HPC).
The mark [3] stands for this setting: dose: 400.0 mg/kg/injection, schedule: Q04DX003 (ip), vehicle: Klucel (hydroxypropylcellulose) (HPC).
The mark [4] stands for this setting: dose: 200.0 mg/kg/injection, schedule: Q01DX001 (ip), vehicle: saline.
Where [5] appears, read: dose: 400.0 mg/kg/injection, schedule: Q01DX001 (ip), vehicle: saline.
[6] abbreviates: dose: 300.0 mg/kg/injection, schedule: Q01DX001 (ip), vehicle: carboxymethylcellulose (CMC).

On to `CC[N+]1(CN2CCCCC2)CCCCC1`, for which the survivor count was 0 of 6 under setting [1], 0 of 6 under setting [2] and 0 of 6 under setting [3].
Regarding `CN(C)C1CCc2ccc3ccccc3c2C1=O` (stereo not given), the survivor count (dose: 100.0 mg/kg/injection, schedule: Q01DX009 (ip), vehicle: saline) is recorded as 0 of 3 and the survivor count (dose: 200.0 mg/kg/injection, schedule: Q01DX009 (ip), vehicle: saline) was 0 of 3.
With `NC(=O)c1c(Br)n(C2OC(CO)C(O)C2O)c2ncnc(N)c12` (stereo not given), the T/C by setting is: under setting [1], 125 % of control; (dose: 100.0 mg/kg/injection, schedule: Q04DX003 (ip), vehicle: saline with Tween-80) 129 % of control; under setting [4], 127 % of control; under setting [2], 134 % of control; (dose: 200.0 mg/kg/injection, schedule: Q04DX003 (ip), vehicle: saline with Tween-80) 136 % of control; under setting [5], 141 % of control. For the same compound, the T/C by setting is: under setting [3], 145 % of control; (dose: 600.0 mg/kg/injection, schedule: Q01DX001 (ip), vehicle: saline) 129 % of control; (dose: 800.0 mg/kg/injection, schedule: Q04DX003 (ip), vehicle: Klucel (hydroxypropylcellulose) (HPC)) 134 % of control.
In the case of `Nc1nc2nc[nH]c2c(Cl)c1Br`, the survivor count (dose: 400.0 mg/kg/injection, schedule: Q04DX002 (ip), vehicle: Klucel (hydroxypropylcellulose) (HPC)) is 0 of 3.
Take `CCCCN(CCCC)CC(O)c1ccnc2cc3c(cc12)OCO3` (stereo not given): the survivor count is 3 of 6 under setting [4] and 1 of 6 under setting [5].
Regarding `Oc1ccccc1/C=N/Nc1c2ccccc2nc2ccccc12`, the survivor count under setting [4] is 2 of 4.
With `[O-][n+]1ccc(N2CCOCC2)cc1`, the survivor count reads like this: under setting [4], 1 of 6; under setting [5], 0 of 6.
Consider `O=NN(CCO)C(=O)Nc1c[nH]c(=O)[nH]c1=O`, for which the T/C (dose: 100.0 mg/kg/injection, schedule: Q01DX001 (ip), vehicle: carboxymethylcellulose (CMC)) was 133 % of control; the T/C (dose: 200.0 mg/kg/injection, schedule: Q01DX001 (ip), vehicle: carboxymethylcellulose (CMC)) is 133 % of control; the T/C under setting [6] was 146 % of control. Besides, the survivor count is, setting by setting: (dose: 500.0 mg/kg/injection, schedule: Q01DX001 (ip), vehicle: carboxymethylcellulose (CMC)) 3 of 6; (dose: 600.0 mg/kg/injection, schedule: Q01DX001 (ip), vehicle: carboxymethylcellulose (CMC)) 3 of 6; (dose: 800.0 mg/kg/injection, schedule: Q01DX001 (ip), vehicle: carboxymethylcellulose (CMC)) 0 of 6; (dose: 1000.0 mg/kg/injection, schedule: Q01DX001 (ip), vehicle: carboxymethylcellulose (CMC)) 1 of 6.
Turning to `CCOP(=O)(OCC)Oc1cc(C)c(N(C)C)c(C)c1`, the survivor count (dose: 300.0 mg/kg/injection, schedule: Q01DX001 (ip), vehicle: saline) is 0 of 6.
In the case of `N#CCCOc1ccc(Cl)cc1`, the survivor count (dose: 400.0 mg/kg/injection, schedule: Q04DX003 (ip), vehicle: saline with Tween-80) is 3 of 6.
On to `Cc1cc(C)c(NC(=O)N(CCCl)N=O)cc1C`, for which the T/C reads like this: (dose: 75.0 mg/kg/injection, schedule: Q01DX001 (ip), vehicle: carboxymethylcellulose (CMC)) 135 % of control; (dose: 150.0 mg/kg/injection, schedule: Q01DX001 (ip), vehicle: carboxymethylcellulose (CMC)) 141 % of control; under setting [6], 142 % of control. Further, the survivor count runs as follows: (dose: 300.0 mg/kg/injection, schedule: Q01DX009 (ip), vehicle: carboxymethylcellulose (CMC)) 6 of 6; (dose: 400.0 mg/kg/injection, schedule: Q01DX001 (ip), vehicle: other) 0 of 6.
With `Cc1ccc(/C=N\N=C\c2ccc(C)cc2)cc1`, under “dose: 400.0 mg/kg/injection, schedule: Q01DX009 (ip), vehicle: saline with Tween-80”, the survivor count is on record as 6 of 6.
